Laboratory results reported in US6645283B1, “Anthrapyridone compounds, water-based magenta ink composition, and method of ink-jet printing” (Nippon Kayaku Kabushiki Kaisha, priority 1998, dated 2003).

Test: Hue and vividness (L*, a*, b*, C*) of ink-jet recorded image, colorimeter GRETAG SPM50
Conditions: ink of Table 2
Text: Each water-based ink composition was produced by preparing the liquids which contain the anthrapyridone compounds (dyestuff components) of No.2, No.5 and No.15 respectively and have a composition of Table 2 as shown below, and then filtering through 0.45 μm membrane filter.
By using an ink-jet printer (Trade name: PICTY80L, made by NEC KK), ink-jet recordings were done on four types of recording sheets: a plain paper (Printer paper A4, TLB5A4S made by Canon KK), a special paper A (Color BJ Paper LC101 made by Canon KK), a special paper B (Coated paper for color image jetting, STX73A4 made by Sharp KK), and a glossy film (Special glossy film, MJA4SP6 made by Seiko-Epson KK).
A recorded paper was subject to color determination using the colorimeter (GRETAG SPM50, made by GRETAG Co.) to calculate L*,a*,b* values. Hue was evaluated on the base of the L*,a*,b* values, and vividness was evaluated from a value calculated by the formula: […]
The preferable recorded image has values in hue and vividness close to those of a color sample of standard magenta in Japan Color by Japan Printing Machinery Manufacturers Association (JNC).

Cn1c(=O)cc2c3c(c(Nc4cc(Nc5nc(Cl)nc(Nc6cc7c(S(=O)(=O)O)cc(S(=O)(=O)O)cc7cc6S(=O)(=O)O)n5)ccc4S(=O)(=O)O)ccc31)C(=O)c1ccccc1-2 [No.15]
Hue a* (Glossy Film (GF)): 79.6 | Hue b* (Glossy Film (GF)): 4.4 | Hue a* (Plain Paper (PP)): 59.1 | Hue b* (Plain Paper (PP)): 4.5 | Hue a* (Special Paper A (SA)): 68.5 | Hue b* (Special Paper A (SA)): 1.9 | Hue a* (Special Paper B (SB)): 75.0 | Hue b* (Special Paper B (SB)): 9.8

Cn1c(=O)cc2c3c(c(Nc4cc(Nc5nc(NCCS(=O)(=O)O)nc(Nc6cc(C(=O)O)cc(C(=O)O)c6)n5)ccc4S(=O)(=O)O)ccc31)C(=O)c1ccccc1-2 [No.2]
Hue a* (Glossy Film (GF)): 81.2 | Hue b* (Glossy Film (GF)): −6.6 | Hue a* (Plain Paper (PP)): 59.2 | Hue b* (Plain Paper (PP)): −1.6 | Hue a* (Special Paper A (SA)): 67.4 | Hue b* (Special Paper A (SA)): −2.7 | Hue a* (Special Paper B (SB)): 75.5 | Hue b* (Special Paper B (SB)): 1.6

Cn1c(=O)cc2c3c(c(Nc4cc(Nc5nc(NCC(=O)O)nc(Nc6cc(C(=O)O)cc(C(=O)O)c6)n5)ccc4S(=O)(=O)O)ccc31)C(=O)c1ccccc1-2 [No.5]
Hue a* (Glossy Film (GF)): 81.9 | Hue b* (Glossy Film (GF)): −5.3 | Hue a* (Plain Paper (PP)): 59.2 | Hue b* (Plain Paper (PP)): −2.4 | Hue a* (Special Paper A (SA)): 67.1 | Hue b* (Special Paper A (SA)): −2.9 | Hue a* (Special Paper B (SB)): 74.9 | Hue b* (Special Paper B (SB)): 1.0
